For some of these results: No signal at the amounts used counts as a negative. For some of these results: Weaker means in comparison with the reference protein, sequence or condition of that experiment. For some of these results: The exact form of at least one protein or probe is not confirmed. For some of these results: At least one verdict was read from the data and is not stated in words by the source. For some of these results: Tags and fusion partners may be left off the protein sequences shown.
Assays:
Assay in all cases: EMSA
YBAP1 = target: T1, YBAP1 (UniProt Q07021); conditions: binding not dependent on the UCAGU motif; 25 mM Tris pH 8.0, 100 mM KCl, 1.5 mM MgCl2, 0.2 mM EGTA, 0.05% Nonidet P-40, 1 mM DTT, 5% glycerol, 50 ug/ml heparin; 30 C 30 min, then ice 10 min; 1 nM RNA; recombinant protein; protein details: His6-MBP; label: 5'-IRD800CWN
T1 sequence (looked up, limits assumed): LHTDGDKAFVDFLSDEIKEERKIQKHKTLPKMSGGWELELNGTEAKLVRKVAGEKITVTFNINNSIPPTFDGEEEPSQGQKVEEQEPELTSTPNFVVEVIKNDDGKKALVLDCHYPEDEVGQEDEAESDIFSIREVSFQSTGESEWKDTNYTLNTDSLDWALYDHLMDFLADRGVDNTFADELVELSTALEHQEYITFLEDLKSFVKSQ

By UniProt entry, the sequences of proteins in these tests, tags left out. Residues count along the entry.
UniProt P67809, 52-129: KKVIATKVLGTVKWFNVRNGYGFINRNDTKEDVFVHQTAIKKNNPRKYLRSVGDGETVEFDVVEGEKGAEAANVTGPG
UniProt P67809, 130-324: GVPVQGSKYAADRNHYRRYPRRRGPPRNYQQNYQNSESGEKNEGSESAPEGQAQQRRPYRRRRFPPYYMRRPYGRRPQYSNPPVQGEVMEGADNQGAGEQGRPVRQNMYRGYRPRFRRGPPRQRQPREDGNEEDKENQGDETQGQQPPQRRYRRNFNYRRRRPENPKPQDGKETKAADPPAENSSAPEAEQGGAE
UniProt P67809, 1-51: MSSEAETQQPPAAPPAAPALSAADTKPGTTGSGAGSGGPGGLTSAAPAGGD

YBX1(52-129) CSD = YBX1(52-129) CSD (UniProt P67809); conditions: 25 mM Tris pH 8.0, 100 mM KCl, 1.5 mM MgCl2, 0.2 mM EGTA, 0.05% Nonidet P-40, 1 mM DTT, 5% glycerol, 50 ug/ml heparin; 30 C 30 min, then ice 10 min; 1 nM RNA; recombinant protein; residues 52-129; protein details: His6-MBP; label: 5'-IRD800CWN
YBX1(130-324) CTD = YBX1(130-324) CTD (UniProt P67809); conditions: little or no affinity; 25 mM Tris pH 8.0, 100 mM KCl, 1.5 mM MgCl2, 0.2 mM EGTA, 0.05% Nonidet P-40, 1 mM DTT, 5% glycerol, 50 ug/ml heparin; 30 C 30 min, then ice 10 min; 1 nM RNA; recombinant protein; residues 130-324; protein details: His6-MBP; label: 5'-IRD800CWN
YBX1(1-51) A/P domain = YBX1(1-51) A/P domain (UniProt P67809); conditions: little or no affinity; 25 mM Tris pH 8.0, 100 mM KCl, 1.5 mM MgCl2, 0.2 mM EGTA, 0.05% Nonidet P-40, 1 mM DTT, 5% glycerol, 50 ug/ml heparin; 30 C 30 min, then ice 10 min; 1 nM RNA; recombinant protein; residues 1-51; protein details: His6-MBP; label: 5'-IRD800CWN

Sequence	binding result (YBAP1)	binding result (YBX1(52-129) CSD)	binding result (YBX1(130-324) CTD)	binding result (YBX1(1-51) A/P domain)
UGAGACAUUGUCAAAUACCCCA [miR223mut]	binds			
UGUCAGUUUGUCAAAUACCCCA [miR223 (hsa-miR-223-3p)]		binds more weakly	no binding	no binding

— publication PMC10403255
